Results: publication PMC8533404
Results are given in words; binding and its absence hold for the method and conditions named. Binding seen in cells or lysates may run through a third protein. Some results given as binding are weak or reduced against the parent protein; the word gives no strength.

T1: Recombinant mambalgin-2 (Dendroaspis polylepis) (UniProt P0DKS3)
T1 sequence: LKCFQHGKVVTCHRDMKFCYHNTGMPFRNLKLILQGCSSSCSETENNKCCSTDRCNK

B1: ASIC3 subunit (protein, UniProt Q9UHC3 1-531)
chain: MKPTSGPEEARRPASDIRVFASNCSMHGLGHVFGPGSLSLRRGMWAAAVVLSVATFLYQVAERVRYYREFHHQTALDERESHRLIFPAVTLCNINPLRRSRLTPNDLHWAGSALLGLDPAEHAAFLRALGRPPAPPGFMPSPTFDMAQLYARAGHSLDDMLLDCRFRGQPCGPENFTTIFTRMGKCYTFNSGADGAELLTTTRGGMGNGLDIMLDVQQEEYLPVWRDNEETPFEVGIRVQIHSQEEPPIIDQLGLGVSPGYQTFVSCQQQQLSFLPPPWGDCSSASLNPNYEPEPSDPLGSPSPSPSPPYTLMGCRLACETRYVARKCGCRMVYMPGDVPVCSPQQYKNCAHPAIDAMLRKDSCACPNPCASTRYAKELSMVRIPSRAAARFLARKLNRSEAYIAENVLALDIFFEALNYETVEQKKAYEMSELLGDIGGQMGLFIGASLLTILEILDYLCEVFRDKVLGYFWNRQHSQRHSSTNLLQEGLGSHRTQVPHLSLGPRPPTPPCAVTKTLSASHRTCYLVTQL
B2: γ-ENaC subunit (protein, UniProt P51170 1-649)
chain: MAPGEKIKAKIKKNLPVTGPQAPTIKELMRWYCLNTNTHGCRRIVVSRGRLRRLLWIGFTLTAVALILWQCALLVFSFYTVSVSIKVHFRKLDFPAVTICNINPYKYSTVRHLLADLEQETREALKSLYGFPESRKRREAESWNSVSEGKQPRFSHRIPLLIFDQDEKGKARDFFTGRKRKVGGSIIHKASNVMHIESKQVVGFQLCSNDTSDCATYTFSSGINAIQEWYKLHYMNIMAQVPLEKKINMSYSAEELLVTCFFDGVSCDARNFTLFHHPMHGNCYTFNNRENETILSTSMGGSEYGLQVILYINEEEYNPFLVSSTGAKVIIHRQDEYPFVEDVGTEIETAMVTSIGMHLTESFKLSEPYSQCTEDGSDVPIRNIYNAAYSLQICLHSCFQTKMVEKCGCAQYSQPLPPAANYCNYQQHPNWMYCYYQLHRAFVQEELGCQSVCKEACSFKEWTLTTSLAQWPSVVSEKWLLPVLTWDQGRQVNKKLNKTDLAKLLIFYKDLNQRSIMESPANSIEMLLSNFGGQLGLWMSCSVVCVIEIIEVFFIDFFSIIARRQWQKAKEWWAWKQAPPCPEAPRSPQGQDNPALDIDDDLPTFNSALHLPPALGTQVPGTPPPKYNTLRLERAFSNQLTDTQMLDEL
B3: ASIC1a subunit (protein, UniProt P78348-2 1-528)
chain: MELKAEEEEVGGVQPVSIQAFASSSTLHGLAHIFSYERLSLKRALWALCFLGSLAVLLCVCTERVQYYFHYHHVTKLDEVAASQLTFPAVTLCNLNEFRFSQVSKNDLYHAGELLALLNNRYEIPDTQMADEKQLEILQDKANFRSFKPKPFNMREFYDRAGHDIRDMLLSCHFRGEVCSAEDFKVVFTRYGKCYTFNSGRDGRPRLKTMKGGTGNGLEIMLDIQQDEYLPVWGETDETSFEAGIKVQIHSQDEPPFIDQLGFGVAPGFQTFVACQEQRLIYLPPPWGTCKAVTMDSDLDFFDSYSITACRIDCETRYLVENCNCRMVHMPGDAPYCTPEQYKECADPALDFLVEKDQEYCVCEMPCNLTRYGKELSMVKIPSKASAKYLAKKFNKSEQYIGENILVLDIFFEVLNYETIEQKKAYEIAGLLGDIGGQMGLFIGASILTVLELFDYAYEVIKHKLCRRGKCQKEAKRSSADKGVALSLDDVKRHNPCESLRGHPAGMTYAANILPHHPARGTFEDFTC
B4: α-ENaC subunit (protein, UniProt P37088 1-669)
chain: MEGNKLEEQDSSPPQSTPGLMKGNKREEQGLGPEPAAPQQPTAEEEALIEFHRSYRELFEFFCNNTTIHGAIRLVCSQHNRMKTAFWAVLWLCTFGMMYWQFGLLFGEYFSYPVSLNINLNSDKLVFPAVTICTLNPYRYPEIKEELEELDRITEQTLFDLYKYSSFTTLVAGSRSRRDLRGTLPHPLQRLRVPPPPHGARRARSVASSLRDNNPQVDWKDWKIGFQLCNQNKSDCFYQTYSSGVDAVREWYRFHYINILSRLPETLPSLEEDTLGNFIFACRFNQVSCNQANYSHFHHPMYGNCYTFNDKNNSNLWMSSMPGINNGLSLMLRAEQNDFIPLLSTVTGARVMVHGQDEPAFMDDGGFNLRPGVETSISMRKETLDRLGGDYGDCTKNGSDVPVENLYPSKYTQQVCIHSCFQESMIKECGCAYIFYPRPQNVEYCDYRKHSSWGYCYYKLQVDFSSDHLGCFTKCRKPCSVTSYQLSAGYSRWPSVTSQEWVFQMLSRQNNYTVNNKRNGVAKVNIFFKELNYKTNSESPSVTMVTLLSNLGSQWSLWFGSSVLSVVEMAELVFDLLVIMFLMLLRRFRSRYWSPGRGGRGAQEVASTLASSPPSHFCPHPMSLSLSQPGPAPSPALTAPPPAYATLGPRPSPGGSAGASSSTCPLGGP

target: T1, Recombinant mambalgin-2 (Dendroaspis polylepis); experiment: pull-down; […] (100 mM TRIS, 150 mM NaCl, pH 8.0), […], TBS + 1 M NaCl + 0.5% Triton X-100, TBS + 0.5% Triton X-100; […]; only the target purified

| Binder | binding |
| --- | --- |
| B1 | no binding |
| B2 | binds |
| B3 | binds |
| B4 | binds |
